Laboratory results as given in PubChem BioAssay AID1439 (NMMLSC, 2008).
The whole screen tested about 220,000 compounds, of which about 770 (0.35%) were called active. The inconclusive results got no clear call from the source; some entries with a clear call stand among them for comparison. Cut-off read from the data, not from the text of the source: active = binding response below about 49% or above about 150%; inconclusive = no clear call, values can overlap the other calls; inactive = in between.

The chains behind the UniProt entries cited, without tags or fusion partners.
UniProt P09471, whole entry, looked up: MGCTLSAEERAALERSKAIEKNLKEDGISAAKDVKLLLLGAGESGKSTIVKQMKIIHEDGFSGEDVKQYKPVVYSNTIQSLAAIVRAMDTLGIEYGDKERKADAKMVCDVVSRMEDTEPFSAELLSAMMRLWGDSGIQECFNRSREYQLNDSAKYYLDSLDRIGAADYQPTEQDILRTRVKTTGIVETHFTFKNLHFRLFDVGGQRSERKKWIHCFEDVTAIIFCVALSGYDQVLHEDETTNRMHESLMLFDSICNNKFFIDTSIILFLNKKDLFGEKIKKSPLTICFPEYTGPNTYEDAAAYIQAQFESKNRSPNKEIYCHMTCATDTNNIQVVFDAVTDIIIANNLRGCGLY

molecular target: Guanine nucleotide-binding protein G(o) subunit alpha (Homo sapiens) (UniProt P09471); test: compounds changing RGS7 association with Galphao – biochemical, multiplexed bead flow cytometry, primary screen (AID 1439); conditions: at 10 µM, actives lie on both sides;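 note: fluorescent Galphao held in activated GDP-AlF4 state binding bead-coupled RGS7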

Structure (SMILES) | binding response (% of control)
Cc1cc(S(N)(=O)=O)ccc1N=Cc1c(O)n(-c2ccccc2)c(=O)[nH]c1=O | inconclusive: 101%
OCC[N+]12CCC(CC1)C(C(O)(c1ccccc1)c1ccccc1)C2 (stereo not drawn) | inconclusive: 73.7%
CC(C)OP(=O)(OC(C)C)C(NCc1ccccc1)c1ccccc1 (stereo not drawn) | inconclusive: 103%
COC(=O)c1cn(C(=O)c2cccc3ccccc23)c2ccccc12 | inconclusive: 90.1%
CC(=NCc1ccc2c(c1)OCO2)c1c(O)n(-c2ccccc2)c(=O)[nH]c1=O | inconclusive: 109%
O=C(O)CCC(=O)NCCC1=c2ccccc2=N/C1=C\c1c(O)n(Cc2ccc(F)cc2)c(=S)[nH]c1=O | inconclusive: 21.9%
COc1ccc(C(=O)O/N=C(/C(N)=O)P(=O)(OC(C)C)OC(C)C)cc1 | inconclusive: 83.5%
Cc1cc(C(=O)C[N+]23CCN(CC2)CC3)c(C)n1-c1ccc(Br)cc1 | inconclusive: 106%
CCOC(=O)c1c(/N=C/C2C(=O)NC(=O)NC2=O)sc2c1CCC2 | inconclusive: 92.2%
CC[C@@H](CO)NC(=O)[C@@H]1C=C2c3cccc4c3c(cn4C)C[C@H]2N(C)C1 | inconclusive: 74.7%
COc1ccccc1N1C(=O)NC(=O)/C(=C/c2ccc([N+](=O)[O-])s2)C1=O | inconclusive: 60.2%
COCc1cc(OC(=O)N(C)C)nc2c1c(C)nn2C | inconclusive: -103%
O=C(c1cc(S(=O)(=O)N2CCC3(CC2)OCCO3)ccc1F)N1CCC2(CC1)OCCO2 | inactive: 102%
O=C1/C(=C\c2ccccc2)C2OCC=C3CN4CCC56c7ccccc7N1C5C2C3CC46 (stereo not drawn) | inconclusive: 70.9%
O=c1[nH]c(=S)[nH]c(O)c1N=Nc1ccc(OC(F)F)cc1 | inconclusive: 99.4%
CC(=O)OC[C@]12CCC(C)=C[C@H]1O[C@@H]1[C@H](O)[C@@H](OC(C)=O)[C@@]2(C)[C@]12CO2 | inconclusive: 112%
Cc1cc(C(=O)Nc2ccc3c(c2)OCCO3)nn1C(C)(C)C | inconclusive: 86.2%
CC1=C(C(=O)Nc2ccccc2)S(=O)(=O)CCO1 | inconclusive: 94.4%
O=C(Nc1ccccc1OC(=O)N1CCCCC1)N1CCCCC1 | inactive: 75.2%
CN(C)C(=O)Oc1ccc(OCc2nc3ccccc3[nH]2)cc1 | inactive: 101%
NS(=O)(=O)c1ccc(N=Nc2c(O)[nH]c(=S)[nH]c2=O)cc1 | inconclusive: 113%
CN(C)c1ccc(-[n+]2c(-c3ccccc3)cc(-c3ccccc3)cc2-c2ccccc2)cc1 | inconclusive: 86.1%

Structure (SMILES) | binding response (% of control)
FCCN(CCF)c1cccc(Cl)c1 | inconclusive: 66.8%
CC12CC[C@H]3[C@@H](CCC4(O)C[C@H](O)CCC34/C=N/NC(=O)c3ccc(O)cc3)C1(O)CCC2C1=CC(=O)OC1 (stereo partly drawn) | inconclusive: 104%
CCC(=NC(C)c1ccccc1)c1c(O)[nH]c(=O)[nH]c1=O (stereo not drawn) | inconclusive: 97%
CCc1ccc(NP(=O)(Oc2ccccc2F)Oc2ccccc2F)cc1 | inconclusive: 106%
O=c1[nH]c2ccccc2o1 | inactive: 94.1%
C=C1C/C(=C/C)C(=O)O[C@@H]2CCN3CC=C(COC(=O)[C@]1(C)O)[C@H]23 | inconclusive: 95.2%
Cn1c(O)c(C2=NN(C(=O)CCl)C(c3ccccc3)C2)c(=O)n(C)c1=O (stereo not drawn) | inconclusive: 71.8%
O=C(N/N=C/c1c(O)n(-c2ccccc2)c(=S)[nH]c1=O)c1ccccc1 | inconclusive: 90.2%
O=C(COc1ccc(Cl)cc1)N(c1ccccc1Cl)C1CN2CCC1CC2 (stereo not drawn) | inconclusive: -26.7%
CCOc1nc(NC(C)C)nc(N2CC3CC(C2)c2cccc(=O)n2C3)n1 (stereo not drawn) | inconclusive: 90%
CC12CC[C@H]3[C@@H](CCC4(O)C[C@H](O)CCC34/C=N/NC(=O)c3ccccc3O)C1(O)CCC2C1=CC(=O)OC1 (stereo partly drawn) | inconclusive: 118%
Cc1ccc(NP(=O)(Nc2ccc(C)cc2)Oc2ccccc2)cc1 | inconclusive: 98.5%
Nc1ccncc1Cl | inconclusive: 90%
CCC(C)n1c(C)cc(C(N)=O)c1C (stereo not drawn) | inconclusive: 106%
COC(=O)CN1C(=O)CN=C(c2ccccc2Cl)c2cc(Br)ccc21 | inconclusive: 70%
CN1CCC2(CC1)C(C#N)=C(N)NC(S)=C2C#N | inconclusive: 109%
C=CCn1c(O)c(/C(C)=N/N2CCCCCC2)c(=O)[nH]c1=O | inconclusive: 81.6%
N#CCCn1cc(C(=O)NCc2ccccc2)c(-c2ccccc2)n1 | inconclusive: 106%
CCC(=NCC1CCCO1)c1c(O)n(-c2ccc(OC)cc2)c(=O)[nH]c1=O (stereo not drawn) | inconclusive: 103%
CN1CCN(c2cn[nH]c(=O)c2Cl)CC1 | inactive: 103%
CC(C)[N+]12CCC(CC1)C(C(O)(c1ccccc1)c1ccccc1)C2 (stereo not drawn) | inconclusive: 130%
O=C1NC2NC(=O)N([N+](=O)[O-])C2N1 (stereo not drawn) | inconclusive: 197%

Structure (SMILES) | binding response (% of control)
COc1ccc(-n2c(O)c(/C(C)=N/N3CCCCCC3)c(=O)[nH]c2=O)cc1 | inconclusive: 99.5%
CCc1c(C)nc(N)nc1N1N=C1SCC(=O)OC | inconclusive: 111%
Cc1ccc(NP(=O)(Oc2ccccc2F)Oc2ccccc2F)cc1 | inactive: 107%
CCCCCCCCN=Cc1c(O)[nH]c(=O)[nH]c1=O | inconclusive: 116%
Cc1cccc(NC(=O)N2CCCC2)c1 | inconclusive: 107%
O=C(Nc1ccccc1F)OC1CN2CCC1CC2 (stereo not drawn) | inconclusive: 136%
COc1ccc(N=Cc2c(O)n(Cc3ccccc3)c(=S)[nH]c2=O)c(OC)c1 | inconclusive: 81.8%
CCOC(=O)c1c(C)n(C(C)C)c2ccc(OC)cc12 | inconclusive: 96%
CN(C(=O)Oc1ccc(C(C)(C)C)cc1)c1ccccc1 | inactive: 99.8%
CCN(CC)CCN=Cc1c(O)n(Cc2ccccc2)c(=O)[nH]c1=O | inconclusive: 405%
Cc1ccc(N2C(=O)NC(=O)/C(=C\c3ccc([N+](=O)[O-])o3)C2=O)cc1 | inconclusive: 93.8%
CCOC(=O)c1ccc2[nH]c(-c3ccc(S(=O)(=O)F)cc3)cc(=O)c2c1 | inconclusive: 294%
CCOP(=O)(OCC)C1(C(=O)O)CCCC1 | inconclusive: 62.8%
c1ccc(C2NCCc3[nH]cnc32)cc1 (stereo not drawn) | inconclusive: 101%
Cc1ccc2c(c1)CC1(CN2C)C(=O)NC(=O)N(CCc2ccccc2)C1=O (stereo not drawn) | inactive: 100%
C=CCn1c(O)c(C(C)=Nc2ccc3c(c2)CCC3)c(=O)[nH]c1=O | inconclusive: 60.3%
O=C1Nc2ccccc2/C1=C/c1nc2ccccc2c(=O)n1-c1ccc(O)cc1 | inconclusive: 105%
O=C(O)c1ccccc1N=Nc1c(O)[nH]c(=O)[nH]c1=O | inconclusive: 126%
Cc1cccc(N2C(=O)NC(=O)/C(=C\C=C\c3ccco3)C2=O)c1 | inconclusive: 97.8%
CCOP(=O)(OCC)/C(C#N)=C/c1ccc(Br)cc1 | inconclusive: 86.2%
CN(C)C(=O)Oc1c(Cl)cc(Cl)c2cccnc12 | inconclusive: 107%
c1ccc2c(CN3CCCCC3)c[nH]c2c1 | inconclusive: 102%

Structure (SMILES) | binding response (% of control)
CN1C(=O)N(C)C(=O)C2(Cc3c(nc4ccccn4c3=O)N3CCc4ccccc4C32)C1=O (stereo not drawn) | inactive: 100%
Clc1ccc(OCC#CCN2CCOCC2)cc1 | inconclusive: 122%
O=c1[nH]c(=S)n(C2CCCCC2)c(O)c1/C=N/N1CCOCC1 | inconclusive: 113%
CCOC(=O)c1cc(C)sc1/N=C/C1C(=O)NC(=S)NC1=O | inconclusive: 101%
O=c1[nH]c(=O)n(-c2ccc(F)cc2)c(O)c1C=NCCN1CCCCC1 | inconclusive: 333%
C[C@H]1CC[C@@]2(C)[C@@H](CC[C@@H]3[C@@H]2CC[C@]2(C)[C@@H](O)CC[C@@H]32)C1 | inconclusive: 97.5%
O=C1NC(=O)C(=C/C=C/c2coc3ccc(Br)cc3c2=O)C(=O)N1 | inconclusive: 86.9%
COc1ccc2[nH]cc(CCN(C)C)c2c1 | inconclusive: 99%
Nc1ccccc1N=Cc1c(O)n(CCC2=CCCCC2)c(=O)[nH]c1=O | inactive: 96.3%
CCOC(=O)N1CCC(NC(=O)CCc2nc(C3=CCN(C)CC3)no2)CC1 | active: 190% [activator]
CCCCCCC(=O)N/N=C/c1c(O)n(C2CC2)c(=S)[nH]c1=O | inconclusive: 61.3%
COc1ccc(-c2n(-c3ccccn3)c3ccccc3[n+]2-c2ccccn2)cc1 | inconclusive: 100%
O=c1[nH]c(=S)[nH]c(O)c1N=Nc1ccc(S(=O)(=O)N2CCc3ccccc32)cc1 | inactive: 99.1%
CCC(=NCc1cccnc1)c1c(O)n(-c2ccc(Cl)cc2)c(=O)[nH]c1=O | inconclusive: 77.5%
COc1ccc(O)c2c(=O)c3c(OC)cc4c(c3oc12)C1C=COC1O4 (stereo not drawn) | inconclusive: 100%
CCN(CC)P(=O)(c1n(CC)cc[n+]1CC)N(CC)CC | inconclusive: 93.4%
O=C1NC(=O)N(c2ccccc2)C(=O)/C1=C/c1coc2ccc(O)cc2c1=O | inconclusive: 84.1%
CCN(CC)CCN/N=C(\C)c1c(O)[nH]c(=O)[nH]c1=O | inconclusive: 76.5%
O=[N+]([O-])c1ccc(-c2ccccc2)c([As](=O)(O)O)c1 | inconclusive: 116%
CS(=O)(=O)NNP(=O)(NNS(C)(=O)=O)NC(=O)c1ccc(Br)cc1 | inconclusive: 67.8%
Cc1ccc(C(=O)NC(O)C(Cl)(Cl)Cl)cc1 (stereo not drawn) | inactive: 98.7%
COc1cc(CN=C(C)c2c(O)n(C)c(=O)n(C)c2=O)cc(OC)c1 | inconclusive: 85.2%

Among those listed so far, these contain two or more sulfur atoms.
Structure (SMILES) | binding response (% of control)
NS(=O)(=O)c1ccc(N=Nc2c(O)[nH]c(=S)[nH]c2=O)cc1 | inconclusive: 113%
CCOC(=O)c1cc(C)sc1/N=C/C1C(=O)NC(=S)NC1=O | inconclusive: 101%
O=c1[nH]c(=S)[nH]c(O)c1N=Nc1ccc(S(=O)(=O)N2CCc3ccccc32)cc1 | inactive: 99.1%
CS(=O)(=O)NNP(=O)(NNS(C)(=O)=O)NC(=O)c1ccc(Br)cc1 | inconclusive: 67.8%
